{
  "source": "PubChem BioAssay AID540256",
  "about": "(National Center for Advancing Translational Sciences (NCATS), 2011)",
  "note": "Hit rate of the full screen: of about 300,000 compounds, about 3,700 (1.2%) were called active. This list was built around the results that the source calls inconclusive (neither active nor inactive); the mix of calls is not that of the screen. Calls come from the whole dose curve; tested in HEK293 cells. Potencies beside an inconclusive call are fits to weak or partial responses and may not hold up. Potency is the fitted concentration of half-maximal effect.",
  "data": [
    {"test": "qHTS for Inhibitors of binding or entry into cells for Lassa Virus; note: nearly all actives have a fitted effect of over 50% in size", "conditions": "Lassa virus pseudotype entry inhibition, cell reporter; series mostly up to 37.9 µM", "values": [
      {"smiles": "CCOC(=O)c1sc2ccccc2c1S(=O)(=O)NCc1ccc(F)cc1", "Potency": "inactive"},
      {"smiles": "C=CCCC(=O)N1CCC(Oc2cccc(C(=O)NCc3ccccn3)c2)CC1", "Potency": "inactive"},
      {"smiles": "Cc1oc2cc3oc(=O)c(CCC(=O)N4CCCCC4)c(C)c3cc2c1C", "Potency": "inconclusive: 35.5 µM [activator, single point]"},
      {"smiles": "COc1cc(C2Nc3ccccc3C(=O)N2c2ccc3c(c2)OCCO3)ccc1OCC(C)C", "note": "(configuration not stated)", "Potency": "inconclusive: 35.5 µM [inhibitor, single point]"},
      {"smiles": "N/C(=N\\OC(=O)CCCOc1ccc(Cl)cc1Cl)c1ccncc1", "Potency": "inactive"},
      {"smiles": "Cc1ccc(S(=O)(=O)/N=C(\\N)c2ccc(Cl)cc2)cc1", "Potency": "inconclusive: 35.5 µM [inhibitor, single point]"},
      {"smiles": "C=C(C)[C@@H]1CCC2(C(=O)O)CC[C@]3(C)[C@H](CC[C@@H]4[C@@]5(C)CCC(=O)C(C)(C)[C@@H]5CC[C@]43C)[C@@H]12", "note": "(some centres not stated)", "Potency": "inactive"},
      {"smiles": "CC(C)c1ccc(-c2nc3ccccc3s2)cc1", "Potency": "inconclusive: 1.78 µM [inhibitor, full curve, poor fit]"},
      {"smiles": "COc1ccccc1CNC(=O)CCC1N=C2c3ccccc3N=C(SCc3ccccc3Cl)N2C1=O", "note": "(configuration not stated)", "Potency": "inconclusive: 35.5 µM [inhibitor, single point]"},
      {"smiles": "O=C(O)c1ccccc1Nc1ccc([N+](=O)[O-])cc1", "Potency": "active: 1.12 µM"},
      {"smiles": "CCSc1nc(-c2ccc(Cl)cc2)nc2c1Cc1c(CO)cnc(C)c1O2", "Potency": "inactive"},
      {"smiles": "CCOc1ccc(NC(=O)c2ccc(CSc3nnnn3C)cc2)cc1", "Potency": "inconclusive: 1.26 µM [activator, partial curve]"},
      {"smiles": "CCOc1ccccc1OCC(=O)NCc1ccco1", "Potency": "inactive"},
      {"smiles": "COc1cccc(OC(=O)c2ccccc2)c1OC(=O)c1ccccc1", "Potency": "inconclusive: 35.5 µM [inhibitor, single point]"},
      {"smiles": "ClCc1csc(-c2ccc(Cl)cc2)n1", "Potency": "inactive"},
      {"smiles": "CCOC(=O)N1CCN(CC(O)COc2ccc(OC)cc2C(C)(C)C)CC1", "note": "(configuration not stated)", "Potency": "inconclusive: 31.6 µM [activator, partial curve, poor fit]"},
      {"smiles": "CCN1CCN(Cc2ccc(NC(=O)Nc3ccccc3)cc2)CC1", "Potency": "inconclusive: 25.9 µM [inhibitor, single point]"},
      {"smiles": "Cc1cc(C)cc(NC(=O)c2ccc(CN3CCc4ccccc4C3)cc2)c1", "Potency": "inactive"},
      {"smiles": "CCN(CC)C(=O)N[C@H]1C[C@@H]2c3cccc4[nH]cc(c34)C[C@H]2N(C)C1", "Potency": "inactive"},
      {"smiles": "COC(=O)C1C(=O)c2c([nH]c(C(=O)OCCOC(C)C)c2C)CC1C", "note": "(configuration not stated)", "Potency": "inactive"},
      {"smiles": "CC1C/C(=N/Nc2nc3ccccc3[nH]2)CC(C)(C)C1", "note": "(configuration not stated)", "Potency": "inconclusive: 29.1 µM [inhibitor, single point]"},
      {"smiles": "CCOC(=O)Cc1csc(NC(=O)c2cc3ccccc3o2)n1", "Potency": "inactive"},
      {"smiles": "CC(C)CNC(=O)C(=O)NNC(=O)c1ccco1", "Potency": "inactive"},
      {"smiles": "Cc1cccc(C(=O)N2CCc3cc(-c4nc(NC(=O)CN5CCCC5)sc4C)ccc32)c1", "Potency": "inconclusive: 0.891 µM [inhibitor, partial curve, poor fit]"},
      {"smiles": "O=C(Nc1cc(Cl)cc(Cl)c1)c1cnn2cccnc12", "Potency": "inactive"},
      {"smiles": "CCC1CCCCN1C(=O)Cn1c(=O)n(CCCCCC(=O)NCc2ccc(F)cc2)c(=O)c2sccc21", "note": "(configuration not stated)", "Potency": "inactive"},
      {"smiles": "Cc1cc(C)n(-c2nnc(Cl)c3ccccc23)n1", "Potency": "inconclusive: 2.51 µM [inhibitor, partial curve, poor fit]"},
      {"smiles": "Oc1ccc2ccccc2c1C=NNc1ccccn1", "Potency": "inconclusive: 0.891 µM [inhibitor, full curve, poor fit]"},
      {"smiles": "CCN(c1ccccc1)S(=O)(=O)c1ccc(C(=O)NC2CCN(Cc3ccccc3)CC2)cc1", "Potency": "inconclusive: 10 µM [inhibitor, partial curve]"},
      {"smiles": "COc1cccc(-c2nnc(-c3ccco3)o2)c1", "Potency": "inconclusive: 11.6 µM [inhibitor, partial curve]"},
      {"smiles": "Nc1nc(NCc2ccc(Cl)cc2)nc(NCCO)c1[N+](=O)[O-]", "Potency": "inconclusive: 25.1 µM [inhibitor, single point]"},
      {"smiles": "CCOC(=O)CN1N=C(c2ccc(Cl)s2)CSC1=O", "Potency": "inconclusive: 0.447 µM [activator, partial curve, poor fit]"},
      {"smiles": "Cc1ccc(-n2nnnc2CNC(=O)c2ccccc2F)cc1C", "Potency": "inconclusive: 28.2 µM [inhibitor, partial curve, poor fit]"},
      {"smiles": "CCOc1ccc(-n2c(SCC(=O)Nc3cc(C)on3)nnc2-c2c[nH]c3ccccc23)cc1", "Potency": "inconclusive: 23.1 µM [inhibitor, single point]"},
      {"smiles": "Cc1ccc(NC(c2nnc(-c3ccccc3)o2)c2ccccc2F)c([N+](=O)[O-])c1", "note": "(configuration not stated)", "Potency": "inactive"},
      {"smiles": "Cc1ccc(C(=O)NC(C)C)cc1-c1ccc(C(=O)NCC2CC2)cc1", "Potency": "inconclusive: 15.8 µM [inhibitor, partial curve, poor fit]"},
      {"smiles": "COCc1cc(=O)[nH]c(/N=C(\\N)Nc2ccc(Oc3ccccc3)cc2)n1", "Potency": "inconclusive: 35.5 µM [inhibitor, single point]"},
      {"smiles": "NCCc1ccc(OCc2ccccc2)c(OCc2ccccc2)c1", "Potency": "inconclusive: 35.5 µM [inhibitor, single point]"},
      {"smiles": "O=C(NCc1ccccc1Cl)c1ccc(CSCc2cccc(F)c2)o1", "Potency": "inconclusive: 7.94 µM [inhibitor, partial curve, poor fit]"},
      {"smiles": "C=CC(=O)NC(NC(=O)C=C)c1ccccc1F", "Potency": "inactive"},
      {"smiles": "COc1ccc(S(=O)(=O)CCC(=O)N2c3ccccc3CC2C)cc1", "note": "(configuration not stated)", "Potency": "inactive"},
      {"smiles": "CN(Cc1cccc(Cl)c1Cl)c1ccc(S(=O)(=O)N2CCCCC2)cc1[N+](=O)[O-]", "Potency": "inactive"},
      {"smiles": "C=CCn1c(SCc2c(C)noc2C)nc2sc(C)c(C)c2c1=O", "Potency": "inconclusive: 6.51 µM [inhibitor, partial curve, poor fit]"},
      {"smiles": "O=C1C(C=NC2CC2)=C(O)c2ccccc21", "Potency": "inconclusive: 12.6 µM [activator, single point]"},
      {"smiles": "CC(NC(=O)COc1cc(=O)n(C)c2ccccc12)c1ccc2c(c1)OCCO2", "note": "(configuration not stated)", "Potency": "inactive"},
      {"smiles": "CC(=O)N1[C@H](Cc2ccccc2)C=C[C@]1(C)C(=O)NCCc1c[nH]c2ccccc12", "Potency": "inconclusive: 20.6 µM [inhibitor, partial curve, poor fit]"},
      {"smiles": "COc1cccc(-c2nnc(SCC(N)=O)n2-c2ccc(Cl)cc2)c1", "Potency": "inactive"},
      {"smiles": "COc1ccc2[nH]c(C(=O)N3CCN(Cc4ccccc4)CC3)cc2c1OC", "Potency": "inconclusive: 5.62 µM [inhibitor, partial curve, poor fit]"},
      {"smiles": "O=C(CCN1C(=O)/C(=C/c2ccco2)SC1=S)Nc1ccc(O)cc1C(=O)O", "Potency": "inconclusive: 2.82 µM [inhibitor, partial curve]"},
      {"smiles": "COc1cc2c(cc1OC)C(COc1ccccc1OC)N(C(=O)C(C)(C)C)CC2", "note": "(configuration not stated)", "Potency": "inconclusive: 35.5 µM [inhibitor, single point]"},
      {"smiles": "O=C(c1cc2ccccc2c(=O)o1)N1CCCCCC1", "Potency": "inconclusive: 7.31 µM [activator, partial curve]"},
      {"smiles": "O=C(NCc1cccnc1)/C(=C\\c1ccc(-c2ccc(Cl)c(Cl)c2)o1)S(=O)(=O)c1ccccc1", "Potency": "inconclusive: 35.5 µM [inhibitor, single point]"},
      {"smiles": "COc1ccccc1Nc1ncc(-c2ccccc2)o1", "Potency": "inconclusive: 1.25 µM [activator, full curve]"},
      {"smiles": "CCS(=O)(=O)N1Cc2ccccc2CC1C(=O)Nc1nc2ccc(C)cc2s1", "note": "(configuration not stated)", "Potency": "inconclusive: 29.1 µM [inhibitor, single point]"},
      {"smiles": "COc1cc2c(-c3ccc(O)cc3)nc3c(c(C)nn3-c3ccccc3)c2cc1OC", "Potency": "inconclusive: 7.08 µM [inhibitor, partial curve, poor fit]"},
      {"smiles": "COc1ccccc1OP(=O)(O)Oc1ccccc1OC", "Potency": "inconclusive: 12.6 µM [activator, single point]"},
      {"smiles": "COc1ccc2cc3c(N)c(C(=O)NCc4ccco4)sc3nc2c1", "Potency": "inactive"},
      {"smiles": "COc1ccc(-c2noc(CCCC(=O)NC3CCCC3)n2)cc1", "Potency": "inconclusive: 8.91 µM [inhibitor, partial curve]"},
      {"smiles": "O=C(NCCCO)c1cc([N+](=O)[O-])cc2c1C=Cc1ccccc1O2", "Potency": "inconclusive: 20 µM [activator, single point]"},
      {"smiles": "CCCc1ccc(OCC(=O)Nc2sc3c(c2C(=O)OC)CCCCC3)cc1", "Potency": "inactive"},
      {"smiles": "COc1ccc(CNC(=O)C(C)N2Cc3ccccc3C2=O)cc1", "note": "(configuration not stated)", "Potency": "inactive"},
      {"smiles": "CCCn1nnc(NC(=O)c2cccnc2Cl)n1", "Potency": "inactive"},
      {"smiles": "CCOc1ccc(N(CC(=O)N2CCCC2)S(=O)(=O)c2ccc(F)cc2)cc1", "Potency": "inactive"},
      {"smiles": "Cc1ccc2c(-c3ccnc(Nc4ccccc4)n3)c(-c3ccc(F)cc3)nn2n1", "Potency": "active: 25 µM"},
      {"smiles": "CCOC(=O)N1CCN(C(=O)c2cc(COc3c(F)cccc3F)on2)CC1", "Potency": "inconclusive: 3.98 µM [inhibitor, full curve, poor fit]"},
      {"smiles": "Cc1nc2c(cc1N)nc(C)n2Cc1ccccc1", "Potency": "inactive"},
      {"smiles": "CCn1ccc2cc(S(=O)(=O)N3CCCN(C(=O)Nc4ccc(C)c(F)c4)CC3)ccc21", "Potency": "inconclusive: 35.5 µM [inhibitor, single point]"},
      {"smiles": "COC(=O)CSc1n[nH]c(-c2ccncc2)n1", "Potency": "inactive"},
      {"smiles": "CCC(C(=O)c1ccc(O)cc1)c1ccccc1", "note": "(configuration not stated)", "Potency": "inactive"},
      {"smiles": "COc1ccc(NC(=O)c2ccc3c(=O)n(-c4ccc(OC)cc4OC)c(=S)[nH]c3c2)cc1", "Potency": "inconclusive: 0.891 µM [inhibitor, full curve, poor fit]"},
      {"smiles": "CCCOc1ccc2oc(=O)c3c(c2c1)CCCN3C(=O)CN(C)Cc1ccccc1", "Potency": "inconclusive: 22.4 µM [inhibitor, single point]"},
      {"smiles": "CC(OC(=O)Cc1c[nH]c2ccccc12)C(=O)N(C)c1ccccc1", "note": "(configuration not stated)", "Potency": "inconclusive: 1.41 µM [inhibitor, full curve, poor fit]"}
    ]}
  ]
}
